The match of structure and compound is tentative.
Target: recombinant human Syk (GST-hSyk fusion protein) (Homo sapiens, UniProt P43405)
Experiment: Homogeneous Time-Resolved Fluorescence (HTRF) assay for the recombinant human Syk enzyme
Conditions: read-out: rhSYK IC50; 10-dose titration, 25 μM ATP
Description: Syk inhibition may be determined using the following assay protocol:
Homogeneous Time-Resolved Fluorescence (HTRF) Assay for the Recombinant Human Syk Enzyme:
A recombinant GST-hSyk fusion protein was used to measure potency of compounds to inhibit human Syk activity. The recombinant human GST-Syk (Carna Biosciences #08-176) (5 pM final concentration) was incubated with various concentrations of the inhibitor diluted in DMSO (0.1% final concentration) for 10 minutes at room temperature in 15 mM Tris-HCl (pH 7.5), 0.01% tween 20, 2 mM DTT in 384 well plate format. To initiate the reaction the biotinylated substrate peptide (250 nM final concentration) that contains the phosphorylation site for Syk was added with magnesium (5 mM final concentration) and ATP (25 μM final concentration). Final volume of the reaction was 10 μL. Phosphorylation of the peptide was allowed to proceed for 45 minutes at room temperature. To quench the reaction and detect the phosphorylated product, 2 nM of a Europium-anti-phosphotyrosine antibody (Perkin Elmer #AD0161) and 70 nM SA-APC (Perkin-Elmer #CR130-100) were added together in 15 mM Tris pH 7.5, 40 mM EDTA, 0.01% tween 20. Final volume of the quenching solution was 10 μL. The resulting HTRF signal was measured after 30 minutes on an EnVision (Perkin-Elmer) reader using a time-resolved fluorescence protocol. […]

IC50: 56 nM
SMILES: O=C(O)CCc1cnn(-c2cccc(Nc3cc(C(F)(F)F)ccn3)n2)c1 [Example 18.1, 3-(1-(6-((4-(trifluoromethyl)pyridin-2-yl)amino)pyridin-2-yl)-1H-pyrazol-4-yl)propanoic acid]

Reference: patent publication US9242984B2, “Pyrazolyl derivatives as Syk inhibitors” (Merck Sharp & Dohme Corp., priority 2012, dated 2016)
